Among the data in article PMC6503996 are binding values, retold here.

Sequences of proteins named here, by UniProt entry; tags and fusion partners are left off.
UniProt Q3UHK6: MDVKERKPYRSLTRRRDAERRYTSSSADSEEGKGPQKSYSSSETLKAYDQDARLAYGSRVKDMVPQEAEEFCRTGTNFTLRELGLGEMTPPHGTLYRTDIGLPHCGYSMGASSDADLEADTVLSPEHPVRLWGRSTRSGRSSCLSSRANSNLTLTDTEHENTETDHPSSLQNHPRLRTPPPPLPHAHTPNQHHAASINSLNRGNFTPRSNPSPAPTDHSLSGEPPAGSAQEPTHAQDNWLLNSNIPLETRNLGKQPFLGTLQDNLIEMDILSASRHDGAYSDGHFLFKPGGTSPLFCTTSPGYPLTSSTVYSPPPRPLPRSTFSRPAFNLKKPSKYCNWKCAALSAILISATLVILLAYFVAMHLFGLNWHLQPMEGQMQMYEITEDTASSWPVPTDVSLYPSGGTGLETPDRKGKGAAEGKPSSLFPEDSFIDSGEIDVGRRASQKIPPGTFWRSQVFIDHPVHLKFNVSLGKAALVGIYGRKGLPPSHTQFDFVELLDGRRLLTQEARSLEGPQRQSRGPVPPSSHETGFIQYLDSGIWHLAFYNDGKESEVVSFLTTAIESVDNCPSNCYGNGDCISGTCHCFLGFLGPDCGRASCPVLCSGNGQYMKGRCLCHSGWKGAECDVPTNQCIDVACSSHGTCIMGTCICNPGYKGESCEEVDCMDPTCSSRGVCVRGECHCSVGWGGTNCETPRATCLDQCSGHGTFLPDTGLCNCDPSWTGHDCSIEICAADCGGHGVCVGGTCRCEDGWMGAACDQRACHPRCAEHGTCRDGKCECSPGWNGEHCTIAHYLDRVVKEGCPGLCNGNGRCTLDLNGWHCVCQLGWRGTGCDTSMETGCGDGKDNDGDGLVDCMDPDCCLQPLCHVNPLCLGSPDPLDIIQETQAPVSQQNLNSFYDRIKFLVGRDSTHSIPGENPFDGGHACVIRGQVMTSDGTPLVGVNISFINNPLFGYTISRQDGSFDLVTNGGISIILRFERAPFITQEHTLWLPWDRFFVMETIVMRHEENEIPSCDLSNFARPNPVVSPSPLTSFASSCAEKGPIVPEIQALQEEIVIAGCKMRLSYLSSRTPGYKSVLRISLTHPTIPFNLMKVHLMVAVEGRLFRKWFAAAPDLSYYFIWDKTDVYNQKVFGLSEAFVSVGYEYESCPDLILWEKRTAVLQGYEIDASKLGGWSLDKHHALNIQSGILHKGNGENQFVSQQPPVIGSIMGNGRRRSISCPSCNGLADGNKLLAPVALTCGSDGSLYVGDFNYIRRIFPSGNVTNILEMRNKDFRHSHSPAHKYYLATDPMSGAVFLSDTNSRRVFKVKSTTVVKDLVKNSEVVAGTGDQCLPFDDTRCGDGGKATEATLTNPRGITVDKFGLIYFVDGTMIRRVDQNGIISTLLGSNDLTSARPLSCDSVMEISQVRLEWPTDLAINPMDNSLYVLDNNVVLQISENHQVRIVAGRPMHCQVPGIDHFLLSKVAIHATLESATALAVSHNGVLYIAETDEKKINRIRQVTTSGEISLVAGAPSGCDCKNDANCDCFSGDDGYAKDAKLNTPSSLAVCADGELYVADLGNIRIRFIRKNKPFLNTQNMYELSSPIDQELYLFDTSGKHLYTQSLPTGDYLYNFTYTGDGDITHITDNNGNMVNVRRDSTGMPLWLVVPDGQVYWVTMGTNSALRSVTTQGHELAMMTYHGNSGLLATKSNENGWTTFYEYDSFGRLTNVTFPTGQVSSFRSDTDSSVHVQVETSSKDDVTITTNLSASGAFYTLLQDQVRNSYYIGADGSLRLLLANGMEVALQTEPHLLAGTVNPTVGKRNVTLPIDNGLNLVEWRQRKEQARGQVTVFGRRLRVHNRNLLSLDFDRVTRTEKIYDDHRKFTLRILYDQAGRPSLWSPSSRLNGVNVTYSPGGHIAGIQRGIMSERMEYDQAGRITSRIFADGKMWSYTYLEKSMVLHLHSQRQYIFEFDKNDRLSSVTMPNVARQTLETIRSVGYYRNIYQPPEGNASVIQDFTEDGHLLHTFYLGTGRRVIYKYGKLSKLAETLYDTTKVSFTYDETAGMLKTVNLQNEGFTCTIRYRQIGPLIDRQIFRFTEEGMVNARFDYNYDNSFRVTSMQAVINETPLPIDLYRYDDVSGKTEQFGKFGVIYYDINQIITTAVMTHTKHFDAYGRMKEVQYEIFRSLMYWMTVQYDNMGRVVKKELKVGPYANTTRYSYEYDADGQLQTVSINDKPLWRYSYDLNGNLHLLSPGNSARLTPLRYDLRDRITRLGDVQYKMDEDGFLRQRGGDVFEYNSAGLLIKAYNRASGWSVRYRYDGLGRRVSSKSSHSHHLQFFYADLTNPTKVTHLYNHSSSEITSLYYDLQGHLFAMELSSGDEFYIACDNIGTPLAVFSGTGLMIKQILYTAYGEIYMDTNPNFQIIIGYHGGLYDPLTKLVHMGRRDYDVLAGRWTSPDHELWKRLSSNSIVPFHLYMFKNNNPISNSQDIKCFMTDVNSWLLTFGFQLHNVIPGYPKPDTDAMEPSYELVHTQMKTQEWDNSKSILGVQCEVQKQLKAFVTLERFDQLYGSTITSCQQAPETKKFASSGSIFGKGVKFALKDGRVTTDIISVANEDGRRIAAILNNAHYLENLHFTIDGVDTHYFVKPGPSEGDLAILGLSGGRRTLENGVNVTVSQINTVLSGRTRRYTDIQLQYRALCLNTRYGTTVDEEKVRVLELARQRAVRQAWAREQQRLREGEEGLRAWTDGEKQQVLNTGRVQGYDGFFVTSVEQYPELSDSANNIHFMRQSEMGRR

The target in this test is Teneurin-4 (Ten4^HA) (UniProt Q3UHK6). In words: cell adhesion (cell aggregation) assay; HEK293T cells transfected one by one with Lphn^mVenus or Ten4^HA, detached, mixed and shaken gently 120 min at room temperature in DMEM, 10% FBS, 50 mM HEPES-NaOH pH 7.4, 10 mM CaCl2, 10 mM MgCl2; aggregates plated and seen by confocal microscopy.

No constants are given. Whether binding was seen depends on the method and setting. Some binding calls cover weakened binding; strength is not graded here. Sequences can lack the tags named with a protein.

B1: Lphn2^mVenus (latrophilin-2 with N-terminal Flag epitope and mVenus at a C-terminal Pml I site) (receptor, UniProt O88923 26-1487)
chain: FSRAALPFGLVRRELSCEGYSIDLRCPGSDVIMIESANYGRTDDKICDADPFQMENTDCYLPDAFKIMTQRCNNRTQCVVVTGSDVFPDPCPGTYKYLEVQYECVPYMEQKVFVCPGTLKAIVDSPSIYEAEQKAGAWCKDPLQAADKIYFMPWTPYRTDTLIEYASLEDFQNSRQTTTYKLPNRVDGTGFVVYDGAVFFNKERTRNIVKFDLRTRIKSGEAIINYANYHDTSPYRWGGKTDIDLAVDENGLWVIYATEQNNGMIVISQLNPYTLRFEATWETTYDKRAASNAFMICGVLYVVRSVYQDNESEAGKNVIDYIYNTRLSRGEHVDVPFPNQYQYIAAVDYNPRDNQLYVWNNNFILRYSLEFGPPDPAQVPTTAVTITSSAELFKTTVSTTSSTSQRGPVSSTVAGPQEGSRGTKPPPAVSTTKIPPVTNIFPLPERFCEALEMKGIKWPQTQRGMMVERPCPKGTRGTASYLCMASTGTWNPKGPDLSNCTSHWVNQLAQKIRSGENAASLANELAKHTKGTVFAGDVSSSVRLMEQLVDILDAQLQELKPSEKDSAGRSYNKLQKREKTCRAYLKAIVDTVDNLLRAETLDCWKHMNSSEQAHTATMLLDTLEEGAFVLADNLLEPTRVSMPTDNIVLEVAVLSTEGQVQDFTFHLGFKGAFSSIQLSANTVKQNSRNGLAKVVFIIYRSLGPFLSTENATVKLGADLLGRNSTIAVNSHVLSVSINKESSRVYLTDPVLFSMPHIDSDNYFNANCSFWNYSERTMMGYWSTQGCKLVDTNKTRTTCACSHLTNFAILMAHREIVYKDGVHKLLLTVITWVGIVVSLVCLAICIFTFCFFRGLQSDRNTIHKNLCINLFIAEFIFLIGIDKTQYTIACPVFAGLLHFFFLAAFSWMCLEGVQLYLMLVEVFESEYSRKKYYYVAGYLFPATVVGVSAAIDSKSYGTLEACWLHVDNYFIWSFIGPVTFIILLNIIFLVITLCKMVKHSNTLKPDSSRLENINNYRVCDGYYNTDLPGYEDNKPFIKSWVLGAFALLCLLGLTWSFGLLFVNEETVVMAYLFTAFNAFQGLFIFIFHCALQKKVRKEYAKCFRHWYCCGGLPTESPHSSVKASTSRTSARYSSGTQSRIRRMWNDTVRKQSESSFISGDINSTSTLNQGMTGNYLLTNPLLRPHGTNNPYNTLLAETVVCNAPSAPVFNSPGHSLNNTRDTSAMDTLPLNGNFNNSYSLRKADYHDGVQVVDCGLSLNDTAFEKMIISELVHNNLRGSNKTHNLELKLPVKPVIGGSSSEDDAIVADASSLMHGDNPGLEFRHKELEAPLIPQRTHSLLYQPQKKVKPEATDSYVSQLTAEADEHLQSPNRDSLYTSMPNLRDSPYPESSPDMAEDLSPSRRSENEDIYYKSMPNLGAGRQLQMCYQISRGNSDGYIIPINKEGCIPEGDVREGQMQLVTSL
For the molecule B1, the binding entry is “binds”.

B2: Lphn1^mVenus (rat latrophilin-1, isoform CL1AA, with mVenus inserted in the cytoplasmic tail) (receptor, UniProt O88917-2 25-1466)
chain: LSRAGLPFGLMRRELACEGYPIELRCPGSDVIMVENANYGRTDDKICDADPFQMENVQCYLPDAFKIMSQRCNNRTQCVVVAGSDAFPDPCPGTYKYLEVQYDCVPYIFVCPGTLQKVLEPTSTHESEHQSGAWCKDPLQAGDRIYVMPWIPYRTDTLTEYASWEDYVAARHTTTYRLPNRVDGTGFVVYDGAVFYNKERTRNIVKYDLRTRIKSGETVINTANYHDTSPYRWGGKTDIDLAVDENGLWVIYATEGNNGRLVVSQLNPYTLRFEGTWETGYDKRSASNAFMVCGVLYVLRSVYVDDDSEAAGNRVDYAFNTNANREEPVSLAFPNPYQFVSSVDYNPRDNQLYVWNNYFVVRYSLEFGPPDPSAGPATSPPLSTTTTARPTPLTSTASPAATTPLRRAPLTTHPVGAINQLGPDLPPATAPAPSTRRPPAPNLHVSPELFCEPREVRRVQWPATQQGMLVERPCPKGTRGIASFQCLPALGLWNPRGPDLSNCTSPWVNQVAQKIKSGENAANIASELARHTRGSIYAGDVSSSVKLMEQLLDILDAQLQALRPIERESAGKNYNKMHKRERTCKDYIKAVVETVDNLLRPEALESWKDMNATEQVHTATMLLDVLEEGAFLLADNVREPARFLAAKQNVVLEVTVLSTEGQVQELVFPQEYASESSIQLSANTIKQNSRNGVVKVVFILYNNLGLFLSTENATVKLAGEAGTGGPGGASLVVNSQVIAASINKESSRVFLMDPVIFTVAHLEAKNHFNANCSFWNYSERSMLGYWSTQGCRLVESNKTHTTCACSHLTNFAVLMAHREIYQGRINELLLSVITWVGIVISLVCLAICISTFCFLRGLQTDRNTIHKNLCINLFLAELLFLVGIDKTQYEVACPIFAGLLHYFFLAAFSWLCLEGVHLYLLLVEVFESEYSRTKYYYLGGYCFPALVVGIAAAIDYRSYGTEKACWLRVDNYFIWSFIGPVSFVIVVNLVFLMVTLHKMIRSSSVLKPDSSRLDNIKSWALGAIALLFLLGLTWAFGLLFINKESVVMAYLFTTFNAFQGVFIFVFHCALQKKVHKEYSKCLRHSYCCIRSPPGGAHGSLKTSAMRSNTRYYTGTQSRIRRMWNDTVRKQTESSFMAGDINSTPTLNRGTMGNHLLTNPVLQPRGGTSPYNTLIAESVGFNPSSPPVFNSPGSYREPKHPLGGREACGMDTLPLNGNFNNSYSLRSGDFPPGDGGPEPPRGRNLADAAAFEKMIISELVHNNLRGASGGAKGPPPEPPVPPVPGVSEDEAGGPGGADRAEIELLYKALEEPLLLPRAQSVLYQSDLDESESCTAEDGATSRPLSSPPGRDSLYASGANLRDSPSYPDSSPEGPNEALPPPPPAPPGPPEIYYTSRPPALVARNPLQGYYQVRRPSHEGYLAAPSLEGPGPDGDGQMQLVTSL
Turning to B2, the binding result was “binds”.
